Assay results reported in publication PMC6073896.
Results are given in words; binding and its absence hold for the method and conditions named. Some entries that bind do so weakly or less than the wild type.

Target: endothelial nitric oxide (NO) synthase (mouse (endogenous in C57Bl/6 left ventricle)) (UniProt P70313)
Test: low-temperature SDS-PAGE (LT-PAGE) with immunoblot; total LV proteins in 5x Laemmli buffer without 2-mercaptoethanol; gels and buffers equilibrated at 4 °C, buffer tank in an ice bath; probed with anti-eNOS antibody; monomer and dimer bands quantified; mice after sham, MI or TAC surgery, sedentary or with eight weeks of voluntary wheel running

- binding: binds
B1: endothelial nitric oxide (NO) synthase (enzyme, UniProt P70313 1-1202)
chain: MGNLKSVGQEPGPPCGLGLGLGLGLCGKQGPASPAPEPSQAPAPPSPTRPAPDHSPPLTRPPDGPRFPRVKNWEVGSITYDTLSAQAQQDGPCTSRRCLGSLVFPRKLQSRPTQGPSPTEQLLGQARDFINQYYNSIKRSGSQAHEQRLQEVEAEVAATGTYQLRESELVFGAKQAWRNAPRCVGRIQWGKLQVFDARDCRTAQEMFTYICNHIKYATNRGNLRSAITVFPQRCPGRGDFRIWNSQLIRYAGYRQQDGSVRGDPANVEITELCIQHGWTPGNGRFDVLPLLLQAPDEPPELFTLPPEMVLEVPLEHPTLEWFAALGLRWYALPAVSNMLLEIGGLEFPAAPFSGWYMSSEIGMRDLCDPHRYNILEDVAVCMDLDTRTTSSLWKDKAAVEINVAVLHSYQLAKVTIVDHHAATASFMKHLENEQKARGGCPADWAWIVPPISGSLTPVFHQEMVNYFLSPAFRYQPDPWKGSAAKGAGITRKKTFKEVANAVKISASLMGTVMAKRVKATILYGSETGRAQSYAQQLGRLFRKAFDPRVLCMDEYDVVSLEHEALVLVVTSTFGNGDPPENGESFAAALMEMSGPYNSSPRPEQHKSYKIRFNSVSCSDPLVSSWRRKRKESSNTDSAGALGTLRFCVFGLGSRAYPHFCAFARAVDTRLEELGGERLLQLGQGDELCGQEEAFRGWAQAAFQAACETFCVGEDAKAAARDIFSPKRSWKRQRYRLSTQAESLQLLPGLTHVHRRKMFQATILSVENLQSSKSTRATILVRLDTGGQEGLQYQPGDHIGVCPPNRPGLVEALLSRVEDPPPSTEPVAVEQLEKGSPGGPPPGWVRDPRLPPCTLRQALTYFLDITSPPSPRLLRLLSTLAEESSEQQELEALSQDPRRYEEWKWFSCPTLLEVLEQFPSVALPAPLILTQLPLLQPRYYSVSSAPSAHPGEIHLTIAVLAYRTQDGLGPLHYGVCSTWMSQLKAGDPVPCFIRGAPSFRLPPDPNLPCILVGPGTGIAPFRGFWQDRLHDIEIKGLQPAPMTLVFGCRCSQLDHLYRDEVLDAQQRGVFGQVLTAFSRDPGSPKTYVQDLLRTELAAEVHRVLCLEQGHMFVCGDVTMATSVLQTVQRILATEGGMELDEAGDVIGVLRDQQRYHEDIFGLTLRTQEVTSRIRTQSFSLQERQLRGAVPWSFDPPGPEIPGS
